Data published in paper PMC7880572 (ACS Chemical Neuroscience, 2021).

Assay: in vitro
Conditions: PAMPA, pH 7.4

Which Papp at 16 h does the source give for `CC(C)NCC(O)COc1ccc(CC(N)=O)cc1` (centres unmarked) [Atenolol] here?
Its Papp at 16 h is 0.88 ×10⁻⁶ cm/s.

With `CN1C(=O)CN=C(c2ccccc2)c2cc(Cl)ccc21` [Diazepam] as the molecule, how does the Papp read?
Its Papp is 13.1 ×10⁻⁶ cm/s.
